{"sequences": {"note": "Amino acid sequences for entries named in this document (tags omitted).", "UniProt O43474": "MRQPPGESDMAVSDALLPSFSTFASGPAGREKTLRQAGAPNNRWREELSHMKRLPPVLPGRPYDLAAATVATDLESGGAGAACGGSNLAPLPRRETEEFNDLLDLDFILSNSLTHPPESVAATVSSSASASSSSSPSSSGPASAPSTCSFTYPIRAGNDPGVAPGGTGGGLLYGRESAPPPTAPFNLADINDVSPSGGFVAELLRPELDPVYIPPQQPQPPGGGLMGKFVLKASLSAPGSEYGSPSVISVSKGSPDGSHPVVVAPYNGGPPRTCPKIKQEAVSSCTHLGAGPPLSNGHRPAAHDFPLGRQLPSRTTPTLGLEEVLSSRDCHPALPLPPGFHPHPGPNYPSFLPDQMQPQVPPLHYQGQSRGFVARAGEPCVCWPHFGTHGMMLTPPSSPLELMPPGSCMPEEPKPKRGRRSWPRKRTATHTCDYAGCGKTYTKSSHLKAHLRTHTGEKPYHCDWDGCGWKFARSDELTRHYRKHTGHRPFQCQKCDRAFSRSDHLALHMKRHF"}, "source": "paper PMC12231887", "molecules": {"B1": {"name": "Flag-tagged ANGPTL4 (Angiopoietin-like 4) (protein, UniProt Q9BY76 26-406)", "chain": "GPVQSKSPRFASWDEMNVLAHGLLQLGQGLREHAERTRSQLSALERRLSACGSACQGTEGSTDLPLAPESRVDPEVLHSLQTQLKAQNSRIQQLFHKVAQQQRHLEKQHLRIQHLQSQFGLLDHKHLDHEVAKPARRKRLPEMAQPVDPAHNVSRLHRLPRDCQELFQVGERQSGLFEIQPQGSPPFLVNCKMTSDGGWTVIQRRHDGSVDFNRPWEAYKAGFGDPHGEFWLGLEKVHSITGDRNSRLAVQLRDWDGNAELLQFSVHLGGEDTAYSLQLTAPVAGQLGATTVPPSGLSVPFSTWDQDHDLRRDKNCAKSLSGGWWFGTCSHSNLNGQYFRSIPQQRQKLKKGIFWKTWRGRYYPLQATTMLIQPMAAEAAS"}, "B2": {"name": "ANGPTL4 overexpressed in MDA-MB-468 cells (protein, UniProt Q9BY76 26-406)", "chain": "B1 chain"}, "B3": {"name": "ANGPTL4, endogenous in MDA-MB-231 cells (protein, UniProt Q9BY76 26-406)", "chain": "B1 chain"}}, "key": {"[1]": {"target": "T1, Flag-tagged ANGPTL4 (Angiopoietin-like 4) (human) (UniProt Q9BY76)", "T1 sequence": "B1 chain", "experiment": "co-IP; 293T cells transfected with Flag-ANGPTL4 and HA-KLF4; reciprocal immunoprecipitation; NP-40 lysis buffer (20 mM Tris-HCl pH 7.5, 150 mM NaCl, 1.5 mM MgCl2, 2 mM EDTA, 0.5% NP-40), primary antibody overnight at 4 °C, protein A/G agarose, immunoblot"}, "HA-tagged KLF4": {"target": "HA-tagged KLF4 (UniProt O43474)", "experiment": "co-IP; 293T cells transfected with Flag-ANGPTL4 and HA-KLF4; reciprocal immunoprecipitation; NP-40 lysis buffer (20 mM Tris-HCl pH 7.5, 150 mM NaCl, 1.5 mM MgCl2, 2 mM EDTA, 0.5% NP-40), primary antibody overnight at 4 °C, protein A/G agarose, immunoblot"}, "[2]": {"target": "KLF4, endogenous in TNBC cells (human (endogenous in MDA-MB-468 and MDA-MB-231)) (UniProt O43474)", "experiment": "co-IP; lysates of TNBC cells: MDA-MB-468 with ANGPTL4 overexpression, MDA-MB-231 with KLF4 knock-down; NP-40 lysis buffer, primary antibody overnight at 4 °C, protein A/G agarose, immunoblot; the precipitating antibody is not stated"}}, "note": "Results are given in words; binding and its absence hold for the method and conditions named. Binding seen in cells or lysates may run through a third protein. Some results given as binding are weak or reduced against the parent protein; the word gives no strength. For some of these results: Tags and fused reporters may be left off the sequences shown."}
{"molecule": "HA-tagged KLF4 (from UniProt O43474 1-513)", "values": [{"measurement": "binding", "setting": "[1]", "result": "binds"}]}
{"molecule": "B1", "values": [{"measurement": "binding", "setting": "HA-tagged KLF4", "result": "binds"}]}
{"molecule": "B2", "values": [{"measurement": "binding", "setting": "[2]", "result": "binds"}]}
{"molecule": "B3", "values": [{"measurement": "binding", "setting": "[2]", "result": "binds"}]}
